Results reported in PubChem BioAssay AID504444 (National Center for Advancing Translational Sciences (NCATS), 2011).
Out of some 360,000 compounds screened, about 7,500 (2.1%) were called active. The shares of active, inactive and inconclusive entries below differ from those in the screen. The call rests on the fitted dose curve; in most records, active means well fitted inhibition curve with a large enough effect; inconclusive means small, poorly fitted or top-dose-only effect, or effect the other way; inactive means flat fitted curve, though single readings scatter. Where the call is inconclusive, the potency comes from a doubtful curve fit.

Assay: Nrf2 qHTS screen for inhibitors; further: nearly all actives have a fitted effect of over 60% in size
Settings: A549 ARE-Fluc reporter, luciferase luminescence, 18-24 h; activity change, negative = inhibition: at 46 µM (top of the series)
Outline: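 Nrf2 activity is the BugLite luminescence, read 15 min after reagent at room temperature, following CellTiter-Fluor cytotoxicity readout (30 min, 37C). Compound titrations were applied for 18-24 h to 5000 A549 ARE_Fluc cells/well in 5% FBS OPTI-MEM.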
On the % scale 0 is the no-effect control and ±100 the full control effect; potency means the concentration at half of the fitted maximal effect.

| Compound | Potency | activity change, negative = inhibition |
| --- | --- | --- |
| COc1ccccc1OCC(=O)NNc1c2ccccc2nc2ccccc12 | active: 20.6 µM | – |
| CC1CCCCN1C(=O)c1cc(-c2ccc(Br)cc2)on1 (stereo unspecified) | inconclusive: 0.326 µM [activator, full curve, poor fit] | – |
| Cc1cccc(NC(=O)c2ccc(C3SCC(=O)N3CCc3ccccc3)cc2)c1 (stereo unspecified) | inconclusive: 32.6 µM [falling, single point] | – |
| COc1ccc(NC(C)C(=O)Nc2ccc(C(C)(C)C)cc2)cc1Cl (stereo unspecified) | inconclusive: 29.1 µM [falling, single point] | – |
| Cc1ccc(S(=O)(=O)N[C@H](C(=O)OCC(=O)N2N=C(c3ccc(Cl)cc3)CC2c2ccco2)C(C)C)cc1 (stereo partly specified) | inconclusive: 29.1 µM [falling, partial curve, poor fit] | – |
| c1c2c(cc3sc(N4CCOCC4)nc13)OCO2 | inconclusive: 0.326 µM [activator, full curve, poor fit] | – |
| O=C(Nc1ccc2c(c1)CCCN2C(=O)c1cccs1)c1c(F)cccc1Cl | active: 25.9 µM | – |
| CC(C)(C)C1CCc2oc3ccc(NS(=O)(=O)c4ccc(C(=O)O)cc4)cc3c2C1 (stereo unspecified) | inactive | – |
| CCn1c(SCC(=O)Nc2ccc(C(C)=O)cc2)nc2nc3c(cc2c1=O)CCCC3 | inconclusive: 29.1 µM [falling, single point] | – |
| COc1ccc(C(=O)Nc2ccccc2C(=O)N(Cc2ccco2)C(C(N)=O)C(C)C)cc1 (stereo unspecified) | inconclusive: 25.9 µM [falling, partial curve, poor fit] | – |
| CSCCC1COC(c2cccs2)=N1 (stereo unspecified) | inconclusive: 23.1 µM [activator, single point] | – |
| Cc1ccc(NC(=O)CC2S/C(=N/N=C3\CCCc4ccccc43)NC2=O)cc1 (stereo unspecified) | inconclusive: 14.6 µM [falling, partial curve, poor fit] | – |
| Cc1ccc(S(=O)(=O)N2CCCCC2)cc1NC(=O)C1=NN(c2ccccc2)C(=O)CC1 | inconclusive: 16.4 µM [falling, partial curve, poor fit] | – |
| O=C(Nc1nc2c(F)cc(F)cc2s1)C1CC(=O)N(Cc2ccco2)C1 (stereo unspecified) | inactive | – |
| O=C(COc1ccccc1)OCc1cc2ccccc2[nH]c1=O | inconclusive: 4.11 µM [falling, partial curve, poor fit] | – |
| CCN(Cc1ccccc1)S(=O)(=O)c1ccc(C(=O)Nc2nnc(-c3ccccc3OC)o2)cc1 | active: 13 µM | – |
| O=C(NCCc1nc2ccccc2n1CCCOc1ccc2ccccc2c1)C1CCCCC1 | inactive | – |
| COc1cccc(C(O)c2nc3ccccc3n2C(C)C)c1OC (stereo unspecified) | inconclusive: 25.9 µM [falling, partial curve, poor fit] | – |
| CC1CN(c2nc(-c3ccc(Br)cc3)nnc2-c2ccccc2)CC(C)N1 (stereo unspecified) | inconclusive: 1.46 µM [activator, partial curve] | – |
| Cc1noc(/C=C/c2ccco2)c1S(=O)(=O)N1CCC(C(=O)NC(C)c2ccccc2)CC1 (stereo unspecified) | inactive | – |
| Cc1ccc(C(=O)c2cn(Cc3ccc(Cl)cc3)c3nc(C)ccc3c2=O)cc1 | inconclusive: 16.4 µM [falling, single point] | – |

Of the compounds above, these contain a thiophene ring, fused or not:

| Compound | Potency | activity change, negative = inhibition |
| --- | --- | --- |
| O=C(Nc1ccc2c(c1)CCCN2C(=O)c1cccs1)c1c(F)cccc1Cl | active: 25.9 µM | – |
| CSCCC1COC(c2cccs2)=N1 (stereo unspecified) | inconclusive: 23.1 µM [activator, single point] | – |

Next results:

| Compound | Potency | activity change, negative = inhibition |
| --- | --- | --- |
| Cc1ccc(CSc2nc3ccccc3c(=O)n2Cc2ccco2)cc1 | inconclusive: 23.1 µM [falling, partial curve] | – |
| CCN(Cc1ccccc1)C(=O)C1CCN(Cc2ccc(OC)c(OC)c2OC)CC1 | inactive | – |
| Cc1ccc2nc3[nH]c(=O)[nH]c(=O)c3c(N)c2c1 | inconclusive: 23.1 µM [falling, single point] | – |
| Cc1ccc(C)c(CN2C(=O)c3ccccc3S(=O)(=O)c3ccc(C(=O)NCCC4=CCCCC4)cc32)c1 | inactive | – |
| COc1ccc(Nc2oc(-c3ccc(COc4ccccc4C)o3)nc2C#N)cc1 | inconclusive: 32.6 µM [falling, partial curve, poor fit] | – |
| Cc1cccc2cc(CN(Cc3ccco3)C(=O)Nc3cccc(C#N)c3)c(Cl)nc12 | inconclusive: 10.3 µM [falling, partial curve] | – |
| CCOc1ccc(Cn2c3ccc(OC)cc3c3nc4ccccc4nc32)cc1OC | inconclusive: 9.2 µM [falling, single point] | – |
| COc1ccc(C(C(=O)NC2CCCC2)N(CCCO)C(=O)Cn2nnc(-c3ccc(C)o3)n2)cc1 (stereo unspecified) | inconclusive: 13 µM [falling, partial curve, poor fit] | – |
| CC1CC2(CCCC2)N(C(=O)c2ccccc2)Cc2ccccc21 (stereo unspecified) | inconclusive: 18.4 µM [activator, partial curve, poor fit] | – |
| COc1ccccc1N1CCN(C(=O)CSc2nnc(NC(=O)C3CCC3)s2)CC1 | inconclusive: 1.84 µM [falling, partial curve] | – |
| Cc1cc2cc(C#N)c(NCCNC(=S)NCCCN3CCOCC3)nc2cc1C | inconclusive: 6.51 µM [activator, single point] | – |
| N#Cc1ccsc1NC(=O)c1cccc([N+](=O)[O-])c1 | inconclusive: 20.6 µM [falling, single point] | – |
| CSc1ccc(/C=N/NC(=O)CNc2cccc3ccccc23)cc1 | inactive | – |
| CCOc1ccc(C(=O)Nc2cnn(Cc3ccc(Cl)c(Cl)c3)c2)cc1 | active: 23.1 µM | – |
| O=C(Nc1nc2ccccc2s1)c1cnccn1 | inconclusive: 4.61 µM [activator, full curve, poor fit] | – |
| CCCCCn1c(=O)[nH]c2cc(C(=O)N3CCN(c4cccc(C(F)(F)F)c4)CC3)ccc2c1=O | – | inactive: -20.7% [at 9.27 µM] |
| Cc1nn(C)c(C)c1CN(C)S(=O)(=O)c1ccc(F)cc1 | inconclusive: 20.6 µM [falling, partial curve] | – |
| Cc1ccc(NC(=O)C2CCN(c3nn4cc(-c5ccc(C)cc5)nc4s3)CC2)cc1 | inconclusive: 13 µM [activator, partial curve] | – |
| O=C(NC1CCN(C(=O)N2c3ccccc3Sc3ccccc32)CC1)c1ccco1 | inconclusive: 20.6 µM [falling, partial curve] | – |
| COc1ccc(NC(=O)COC(=O)C23CC4CC(CC(O)(C4)C2)C3)cc1Cl | inconclusive: 18.4 µM [activator, partial curve] | – |
